Results are given in words; binding and its absence hold for the method and conditions named. Binding seen in cells or lysates may run through a third protein. Some binding calls cover weakened binding; strength is not graded here.
Biological target: hemagglutinin (HA)-tagged PPP2CA (catalytic subunit of PP2A) (UniProt P67775)
Assay: co-IP; lysates of HCT116 or SW1116 cells transfected with Flag-AKR1B10 (WT, point mutants or truncations; varying plasmid amounts in shAKR1B10 cells) and HA-PPP2CA; primary antibody and Protein A/G PLUS-Agarose at 4°C overnight, Western blot

Sequences of proteins named here, by UniProt entry; tags and fusion partners are left off. A change or cut given only in a name is not applied to a line headed by its entry.
UniProt Q15172, whole entry: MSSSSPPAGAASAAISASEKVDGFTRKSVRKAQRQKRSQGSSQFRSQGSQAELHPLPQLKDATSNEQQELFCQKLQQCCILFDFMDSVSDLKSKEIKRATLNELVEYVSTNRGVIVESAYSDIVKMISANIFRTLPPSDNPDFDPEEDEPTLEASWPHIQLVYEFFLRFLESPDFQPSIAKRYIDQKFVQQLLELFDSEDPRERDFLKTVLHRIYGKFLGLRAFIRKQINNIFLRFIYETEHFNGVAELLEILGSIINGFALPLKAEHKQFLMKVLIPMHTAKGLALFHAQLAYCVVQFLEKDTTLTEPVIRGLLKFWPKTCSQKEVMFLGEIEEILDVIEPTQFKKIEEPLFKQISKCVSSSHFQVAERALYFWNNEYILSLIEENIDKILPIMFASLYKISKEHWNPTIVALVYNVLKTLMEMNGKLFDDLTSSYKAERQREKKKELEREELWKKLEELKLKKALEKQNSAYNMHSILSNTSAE
UniProt P01106, whole entry: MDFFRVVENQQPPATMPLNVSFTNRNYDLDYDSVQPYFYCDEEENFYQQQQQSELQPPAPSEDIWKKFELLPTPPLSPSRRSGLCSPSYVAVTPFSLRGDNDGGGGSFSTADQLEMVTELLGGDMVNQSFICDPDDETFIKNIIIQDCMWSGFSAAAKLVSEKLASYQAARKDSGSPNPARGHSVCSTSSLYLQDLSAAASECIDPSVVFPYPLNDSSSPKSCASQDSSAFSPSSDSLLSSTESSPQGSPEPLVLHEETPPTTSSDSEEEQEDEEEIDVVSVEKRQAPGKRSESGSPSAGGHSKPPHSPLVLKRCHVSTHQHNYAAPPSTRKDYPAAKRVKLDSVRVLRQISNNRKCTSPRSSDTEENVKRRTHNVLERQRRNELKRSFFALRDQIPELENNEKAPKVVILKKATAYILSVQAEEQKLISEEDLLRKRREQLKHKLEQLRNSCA

Substance	binding
Flag-tagged AKR1B10 (aldo-keto reductase family 1 member B10), wild type (from UniProt O60218 1-316) (enzyme)	binds
Flag-tagged AKR1B10 K263R (from UniProt O60218 1-316) (enzyme)	binds
Flag-tagged AKR1B10 P219S (from UniProt O60218 1-316) (enzyme)	binds
Flag-tagged AKR1B10 truncation lacking the N-terminal residues 1 to 100 (from UniProt O60218 101-316) (domain or fragment)	binds
endogenous B56α (PPP2R5A), regulatory subunit of PP2A (from UniProt Q15172 1-486)	binds
endogenous c-Myc (from UniProt P01106 1-454)	binds

Source: publication PMC12372902
